According to patent US20090142330A1, “Use of inactive-plasmin to treat chronic inflammatory disease and tumors” (The Government of the United States of America as …, priority 2007, published 2009):
Results are given in words; binding and its absence hold for the method and conditions named. Some entries that bind do so weakly or less than the wild type.

The chains behind the UniProt entries cited, without tags or fusion partners. Residues count along the entry.
UniProt P07355, residues 2-339: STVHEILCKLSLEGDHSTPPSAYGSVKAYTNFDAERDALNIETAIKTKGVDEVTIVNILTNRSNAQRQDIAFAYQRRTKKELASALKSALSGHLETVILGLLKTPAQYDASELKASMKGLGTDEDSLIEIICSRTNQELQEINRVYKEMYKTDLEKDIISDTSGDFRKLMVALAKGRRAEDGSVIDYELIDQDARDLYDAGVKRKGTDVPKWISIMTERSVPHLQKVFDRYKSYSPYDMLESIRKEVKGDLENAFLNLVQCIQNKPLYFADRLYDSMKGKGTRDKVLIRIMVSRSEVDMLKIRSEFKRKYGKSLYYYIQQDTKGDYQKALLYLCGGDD
UniProt P60903: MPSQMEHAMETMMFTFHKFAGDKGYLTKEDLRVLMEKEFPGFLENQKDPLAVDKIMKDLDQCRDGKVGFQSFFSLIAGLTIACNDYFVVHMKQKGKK
UniProt P00747, residues 97-810: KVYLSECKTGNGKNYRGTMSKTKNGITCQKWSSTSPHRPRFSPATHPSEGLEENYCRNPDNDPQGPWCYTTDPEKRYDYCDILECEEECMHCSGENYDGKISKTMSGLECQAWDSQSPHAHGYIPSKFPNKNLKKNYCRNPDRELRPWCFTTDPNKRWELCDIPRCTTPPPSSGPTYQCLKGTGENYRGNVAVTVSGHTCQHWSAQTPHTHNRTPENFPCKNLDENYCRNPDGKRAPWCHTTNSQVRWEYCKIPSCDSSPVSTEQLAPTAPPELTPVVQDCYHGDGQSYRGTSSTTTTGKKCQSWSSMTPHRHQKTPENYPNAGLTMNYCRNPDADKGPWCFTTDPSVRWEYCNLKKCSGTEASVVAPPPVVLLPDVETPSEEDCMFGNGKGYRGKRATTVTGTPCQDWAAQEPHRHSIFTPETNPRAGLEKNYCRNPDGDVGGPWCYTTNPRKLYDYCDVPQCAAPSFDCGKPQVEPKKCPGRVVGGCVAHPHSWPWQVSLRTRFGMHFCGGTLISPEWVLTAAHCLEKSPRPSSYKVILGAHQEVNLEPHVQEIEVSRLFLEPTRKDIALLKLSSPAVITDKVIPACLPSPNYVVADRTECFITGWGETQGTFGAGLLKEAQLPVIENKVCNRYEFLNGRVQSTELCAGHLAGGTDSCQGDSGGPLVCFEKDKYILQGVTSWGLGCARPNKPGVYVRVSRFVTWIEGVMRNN

Assays:
[1] = target: Annexin A2 (p36) on human monocytes (human) (UniProt P07355); experiment: flow cytometry on human monocytes (FIGS. 6C, 6D)
[2] = target: Annexin A2 (p36) on human monocytes (human) (UniProt P07355); experiment: flow cytometry, FITC-plasmin on human monocytes
[3] = target: S100A10 (p11) on human monocytes (human) (UniProt P60903); experiment: flow cytometry, FITC-plasmin on human monocytes with or without anti-annexin A2 / anti-p36 / anti-p11 antibodies (FIGS. 3C, 3F)
[4] = target: Annexin A2 (p36) on human monocytes (human) (UniProt P07355); experiment: as above

Substance | binding [1] | binding [2] | binding [3] | binding [4]
Inactive plasmin, in which the catalytic site had been irreversibly blocked with a peptide inhibitor (from UniProt P00747 97-810) (enzyme) | binds |  |  | 
Plasmin (FITC-labeled plasmin in the flow cytometry assays) (from UniProt P00747 97-810) (enzyme) |  | binds | binds | binds
